{"source": "patent US6921541B2", "about": "“Formulations and methods for providing prolonged local anesthesia” (Euro-Celtique S.A., priority 1995, dated 2005)", "tested_on": "rat sciatic nerve", "conditions": "0.1 % additive conc. in carrier vehicle; LAB 150 mg/kg", "note": "The name of at least one read-out is uncertain.", "data": [{"smiles": "COc1cc2c(c(OC)c1OC)-c1ccc(OC)c(=O)cc1[C@@H](NC(C)=O)CC2", "note": "[Colchicine]", "values": [{"measurement": "Duration Anesthesia As Percent of Control", "result": "677% of Control"}]}]}
